From PubChem BioAssay AID1688 (National Center for Advancing Translational Sciences (NCATS), 2009)
About 2,400 (1.1%) of roughly 220,000 compounds were called active. Inconclusive means that the source gave no clear call. Such entries were picked first, then a sample of the others. Calls come from the whole dose curve; as a rule, active = well fitted inhibition curve with a large enough effect; inconclusive = small, poorly fitted or top-dose-only effect, or effect the other way; inactive = no such curve, though single readings can be large or run the other way. A potency beside an inconclusive call is a rough fit, not a confirmed value.

assay: qHTS Multiplex Assay to Identify Dual Action Probes in a Cell Model of Huntington: Aggregate Formation (GFP); settings: PC12 HttQ103-GFP aggregates, Acumen cytometry, 40 h; activity change, negative = inhibition: at 46.1 µM (top of the series) unless noted; note: nearly all actives have a fitted effect of over 60% in size
How it was run: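 Inducible Q103 Huntingtin exon 1–GFP PC12 line, 1500 cells/well in phenol red free DMEM with 5% equine and 5% calf serum. Tebufenozide 100 nM induced expression; compounds titrated; aggregates quantified by cytometry.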
% is set by controls: 0 for no effect and ±100 for the full control effect; potency is the fitted concentration of half-maximal effect.

| SMILES | Potency | activity change, negative = inhibition |
| --- | --- | --- |
| COc1ccc(-n2c(-c3ccc(Cl)cc3)c[n+]3c2CCc2ccccc2-3)cc1 | active: 12.6 µM | – |
| O=C(/C=C/c1ccc(N2CCCCC2)c([N+](=O)[O-])c1)c1ccc(O)cc1 | active: 17.8 µM | – |
| CN1C/C(=C/c2cccnc2)C(=O)/C(=C/c2cccnc2)C1 | inconclusive: 15.8 µM [activator, single point] | – |
| Cc1cc(C)c2c(N)c(C(=O)NCC3CCCCC3)sc2n1 | inconclusive: 12.6 µM [activator, single point] | – |
| CCN(CC)S(=O)(=O)c1cccc(C(=O)N/N=C(\C)c2ccc(O)cc2O)c1 | active: 3.98 µM | – |
| CCc1ccc(-n2c(SCc3cc(=O)n4cc(Br)ccc4n3)nc3[nH]ncc3c2=O)cc1 | inconclusive: 35.5 µM [inhibitor, single point] | – |
| Cc1cccc(C(=O)N2CCC(Cc3ccccc3)CC2)c1[N+](=O)[O-] | inconclusive: 14.1 µM [inhibitor, partial curve] | – |
| CCC(=O)Oc1oc(-c2ccccc2)nc1C=Nc1ccc(C)cc1 | – | inactive: 1.15% [at 9.22 µM] |
| Cc1cc(C(=O)Nc2ccccc2C(F)(F)F)no1 | inconclusive: 35.5 µM [inhibitor, single point] | – |
| Cc1ccc(OCC(=O)Nc2ccc(S(=O)(=O)Nc3onc(C)c3C)cc2)cc1 | inconclusive: 5.62 µM [inhibitor, single point] | – |
| COc1ccc(-c2cc(=O)oc3c(C)c(OC(=O)c4cccs4)ccc23)cc1 | inconclusive: 3.98 µM [inhibitor, full curve] | – |
| Cc1noc2ncnc(Sc3ccc(Cl)cc3)c12 | inconclusive: 22.4 µM [inhibitor, single point] | – |
| Cc1cc(-n2c(C)cc(C(=O)CSc3ncnc4ccccc34)c2C)no1 | active: 1.78 µM | – |
| CCN(CCNC(=O)C1CCN(Cc2nc(-c3cccc(Cl)c3)oc2C)CC1)c1ccccc1 | active: 10 µM | – |
| NC(=O)c1ccc(NC(=O)COC(=O)c2c3c(nc4ccccc24)/C(=C\c2cccs2)CCC3)cc1 | inconclusive: 31.6 µM [inhibitor, single point] | – |
| O=[N+]([O-])c1ccc(NCCCNS(=O)(=O)c2ccc(Cl)cc2)c(Cl)c1 | inconclusive: 14.1 µM [inhibitor, partial curve] | – |
| O=C1CSc2ccc(C(=O)O)cc2N1 | inconclusive: 3.16 µM [inhibitor, partial curve, poor fit] | – |
| Cc1cc(C)c(S(=O)(=O)/N=C2/C=C(SCC(=O)O)C(=O)c3ccccc32)cc1C | active: 12.6 µM | – |
| O=c1c2ccccc2nc(-c2ccc(Cl)c(Cl)c2)n1O | inconclusive: 35.5 µM [inhibitor, single point] | – |
| COc1cccc(CN(Cc2cccnc2)S(=O)(=O)c2ccc(-n3cnnn3)c(C)c2)c1 | inactive | – |
| CCCCn1c(SCC(=O)NC(C)CC)nc2ccc(N3CCOCC3)cc2c1=O (stereo not given) | inconclusive: 1.26 µM [activator, single point] | – |
| C=CCc1cccc(/C=N/NC(=O)CCCNc2ccc(C)cc2)c1O | inconclusive: 10 µM [inhibitor, partial curve] | – |
| COc1ccc(NC(=O)C(c2ccccc2)N(C)C(=O)c2cnccn2)cc1 (stereo not given) | inconclusive: 5.01 µM [activator, single point] | – |
| CC(C)CC(C(=O)O)N(Cc1ccccc1)Cc1ccccc1 (stereo not given) | inconclusive: 11.2 µM [activator, partial curve] | – |

2 entries from above, tab-delimited:
SMILES	Potency	activity change, negative = inhibition
O=C1CSc2ccc(C(=O)O)cc2N1	inconclusive: 3.16 µM [inhibitor, partial curve, poor fit]	–
CCCCn1c(SCC(=O)NC(C)CC)nc2ccc(N3CCOCC3)cc2c1=O (stereo not given)	inconclusive: 1.26 µM [activator, single point]	–

(list continues)

| SMILES | Potency | activity change, negative = inhibition |
| --- | --- | --- |
| O=C(CC1NCCc2ccccc21)Nc1ccc(Cl)cc1 (stereo not given) | inactive | – |
| CC(=O)C1=C(C)NC(SCC(=O)Nc2nccs2)=C(C#N)C1c1ccccc1Cl (stereo not given) | inactive | – |
| COc1ccc(N(Cc2cc3ccc(C)cc3[nH]c2=O)C(=O)c2ccco2)cc1 | inactive | – |
| COc1ccc(-n2c(C)cc(C(=O)COC(=O)Cn3cnc4ccccc43)c2C)cc1 | inconclusive: 14.1 µM [inhibitor, single point] | – |
| COc1ccc(S(=O)(=O)NC(CC(=O)NC2CCCC2)c2ccco2)cc1 (stereo not given) | inactive | – |
| COc1ccc(Cl)c(Cn2c(NCc3ccccn3)nc3c2c(=O)n(C)c(=O)n3C)c1 | inconclusive: 2.82 µM [inhibitor, single point] | – |
| CCOC(=O)C1CCCN(S(=O)(=O)c2ccc(OC)c3ccccc23)C1 (stereo not given) | inconclusive: 0.562 µM [inhibitor, full curve, poor fit] | – |
| Cc1cccc2sc(NNC(=O)c3ccc(S(=O)(=O)N4CCCC(C)C4)cc3)nc12 (stereo not given) | inconclusive: 2.51 µM [inhibitor, full curve] | – |
| O=C(C1CCCN(S(=O)(=O)c2cccc3nsnc23)C1)N1CC=C(c2ccccc2)CC1 (stereo not given) | inconclusive: 35.5 µM [inhibitor, single point] | – |
| O=C(Nc1ccc(Br)cc1)C1CCN(C(=O)c2ccc(F)cc2)CC1 | inconclusive: 31.6 µM [activator, single point] | – |
| Cn1c(=O)c2c(nc(CN3CCN(CCO)CC3)n2CCc2ccccc2)n(C)c1=O | – | inactive: -17.4% [at 9.22 µM] |
| Cn1c(=O)c(=O)n(C)c2cc(S(=O)(=O)N3CCCC3C(=O)NCc3cccnc3)ccc21 (stereo not given) | – | inactive: -14.2% [at 9.22 µM] |
| Cn1c(=O)n(C)c2cc(/C=C3/NC(=O)N(Cc4ccccc4)C3=O)ccc21 | inconclusive: 10 µM [activator, partial curve, poor fit] | – |
| Cc1cccc(N2CCN(C(=O)CCNS(=O)(=O)c3ccc4c(c3)CCC(=O)N4)CC2)c1C | inconclusive: 35.5 µM [inhibitor, single point] | – |
| CSc1nc(-c2ccccc2)nc(N2CCOCC2)c1C(C)=O | inactive | – |
| CCSc1nnc(NC(=O)c2nn(C(C)C)c(=O)c3ccccc23)s1 | inconclusive: 20 µM [inhibitor, single point] | – |
| Cc1ccc(C)c(NC(=O)CCC(=O)N/N=C/c2ccc[nH]2)c1 | inconclusive: 35.5 µM [inhibitor, single point] | – |
| CCOC(=O)N1CCN(C(=O)CSc2ccc3nnc(CCNC(=O)c4ccccc4)n3n2)CC1 | inactive | – |
| CCCCOc1ccc(Br)cc1CSC(=N)N | inconclusive: 2.51 µM [inhibitor, full curve] | – |
| O=C(Nc1ccncc1)C1CCN(S(=O)(=O)c2cccs2)CC1 | inactive | – |
| Cc1ccc2c3c1C1(C(=O)N3C(C)(C)CC2C)C(C#N)=C(N)Oc2cc(O)ccc21 (stereo not given) | inactive | – |
| Cc1noc(C)c1S(=O)(=O)N1CCC(C(=O)NC2CCCc3ccccc32)CC1 (stereo not given) | inactive | – |
| COc1cc(Cl)cc(/C=C/c2ccc3ccccc3n2)c1OC(C)=O | inconclusive: 5.62 µM [activator, partial curve] | – |
| COC(=O)C1=C(C)NC(=S)NC1c1ccc(-c2cccc(Cl)c2)o1 (stereo not given) | inactive | – |

| SMILES | Potency | activity change, negative = inhibition |
| --- | --- | --- |
| COC(=O)c1cccc(C23CC4(C2)[C@H](CN(Cc2cccnc2)[C@@H]4c2ccccc2)C3c2ccc(C(F)(F)F)cc2)c1 (stereo not given in full) | – | inactive: -15.6% [at 9.22 µM] |
| CN(C)c1ccc(C=NCC2(O)CCOC(C)(C)C2)cc1 (stereo not given) | inactive | – |
| Cc1cc(NS(=O)(=O)c2ccc(NC(=O)c3cc4c(=O)n5ccccc5nc4s3)cc2)nc(C)n1 | inconclusive: 11.2 µM [activator, partial curve] | – |
| Cc1ccccc1NC(=O)C(C)c1cccc(C(=O)c2ccccc2)c1 (stereo not given) | inconclusive: 35.5 µM [inhibitor, single point] | – |
| COc1cccc(/C=N/NC(=O)c2cc(-c3cccn3C)n[nH]2)c1O | active: 1.78 µM | – |
| CCOC(=O)c1sc2ccc(S(=O)(=O)N3CCCCC3)cc2c1N | inconclusive: 22.4 µM [inhibitor, single point] | – |
| CC1(C)CC2CC(C)(CN2c2ncnc3ccccc23)C1 (stereo not given) | inconclusive: 11.2 µM [inhibitor, partial curve] | – |
| Cc1ccc2ncnc(Nc3ccccc3)c2c1 | inconclusive: 12.6 µM [inhibitor, partial curve] | – |
| Cc1c(CCOC(=O)C23CC4CC(CC(C4)C2)C3)sc[n+]1CC#N | inactive | – |
| CCNc1nc(NC(C)C)nc(N(C#N)CCOc2ccc(Cl)cc2Cl)n1 | active: 35.5 µM | – |
| CCOc1ccc(OCc2ccc(C(=O)O)o2)cc1 | inactive | – |
| Cc1nc(N2CCN(Cc3ccccc3)CC2)nc2c1C(=O)CC(c1ccco1)C2 (stereo not given) | inconclusive: 35.5 µM [inhibitor, single point] | – |
| COc1ccc(-n2cc(-c3ccccc3)c3c(NN4CCOCC4)ncnc32)cc1 | inconclusive: 35.5 µM [inhibitor, single point] | – |
| O=[N+]([O-])c1ccc(N/N=C\c2cccn2-c2ccccc2)nc1 | inconclusive: 22.4 µM [inhibitor, single point] | – |
| CCC(=O)N(C)CCc1cc2c(c(OC)c1/C=N/NC(=O)c1ccc(Br)cc1)OCO2 | inactive | – |
| O=C(N/N=C/c1ccccc1O)C1(O)c2ccccc2-c2ccccc21 | active: 10 µM | – |
| CC1(CC(=O)N/N=C/c2cc([N+](=O)[O-])c(O)cc2O)OCCO1 | inactive | – |
| COc1ccc(S(=O)(=O)N2CCN(c3c(C)cccc3C)CC2)cc1OC | inconclusive: 35.5 µM [inhibitor, single point] | – |
| O=C(c1ccc(CNc2c(N3CCOCC3)c(=O)c2=O)cc1)N1CC=C(c2ccccc2)CC1 | inactive | – |
| Cc1ccc(Cn2ccc(NC(=O)c3noc4c3CCCCC4)n2)cc1 | inconclusive: 35.5 µM [inhibitor, single point] | – |
| Cc1ccc(S(=O)(=O)NN2C(=O)c3ccccc3NC2c2ccccc2O)cc1 (stereo not given) | inactive | – |
| CCOc1ccc(S(=O)(=O)NCc2csc(C)n2)cc1 | inconclusive: 0.112 µM [activator, partial curve, poor fit] | – |
